The other results are listed elsewhere or left out. Results with a measured potency or affinity are listed apart.

The test concerns Pseudomonas aeruginosa. The settings on record: Concentration 20 uM; ASSAY_TEST Inhibition of Bacterial Growth; detection method Absorption (OD600); MEDIA CAMHB; plate type 384well; NBS; CORNING #3640; time 18 hr.
For the molecule `COc1cc(CCC(=O)O)on1`, the Inhibition is 13.92%.
The value for `CC(=O)O.N=c1ccn2c(n1)OC1C(O)C(CO)OC12` (configuration not stated) was 17.35%; that for `O=C(/C=C/c1cccnc1)/C=C/c1cccnc1` was 3.39%.
On to `Cn1cnc2ncnn2c1=S`, for which the Inhibition is listed as -10.78%.
The value for `COc1cc(NCc2ccccc2O)c2ncccc2c1` was 13.22%; that for `CC(=O)OCCn1c2nc(=O)[nH]c(=O)c-2nc2cc(C)c(C)cc21` was 0.66%.
Take `CSc1nc2nc(C(O)c3ccccc3)nc-2c[nH]1` (configuration not stated): the Inhibition is -7.72%.
The value for `CCCc1cc(=O)oc2c3c(c4c(c12)OC(C)(C)C=C4)OC(C)[C@H](C)[C@@H]3O` (some centres not stated) was 18.14%.
Then `O=C(Nc1ccc(C(=O)O)c(O)c1)c1ccccc1` [BENZOYLPAS], with 4.8%; and `Cc1nc2[nH]c(=O)n(O)c(=O)c2s1`, with 8.63%.
Turning to `Cc1ccccc1OCC(O)CN1CCN(c2ccc(Cl)cc2)CC1` (configuration not stated), the Inhibition was 16%.
As for `Nc1nnc(S)n1-c1ccc(Cl)cc1`, the Inhibition turned out to be 10.31%.
The value for `COC(=O)Cc1[nH]c(O)nc1C(=O)OC` was 10.28%.
Then `CCCCC(=O)N1CCCC(C)C1` (configuration not stated), with -0.54%; and `Nc1ncnc2c1cnn2C1CCCCC1`, with -15.65%.
Consider `O=C(NC1(N2CCOCC2)CC1)c1ccc(Cl)cc1`, for which the Inhibition is recorded as -1.89%.
The value for `CCOC(=O)C1C(=O)C(=O)N(C(C)C)C1C(=O)OCC` (configuration not stated) was -2.75%; that for `COc1cc2c(=O)n3c4c(cccc4c2cc1OC)CC3` was 12.72%; that for `COc1ccc(C(C)=O)cc1CO/N=C1\CSCc2ccccc21` was 16.05%.
As for `Oc1ccc(Nc2ccc3ccccc3c2)cc1`, the Inhibition is -17.28%.
Then `COc1cc(C(=O)C(=O)c2ccc(O)c(OC)c2)ccc1O`, with 13.12%; and `COc1ccc(Cc2nnc(SC)n2-c2ccc(F)cc2)cc1OC`, with 8.89%; and `CCOC(=O)C1CC(=O)c2cc(OC)c(OC)cc2C1` (configuration not stated), with 4.17%.
Then `CCOC(=O)Nc1c2ccccc2nc2ccccc12`, with 16.61%; and `CS(=O)(=O)Oc1ccc(Br)c2cccnc12`, with 19.99%; and `O=C(Nc1ccc2ccccc2c1)c1ccc(Cl)cc1Cl`, with 10.38%.
Then `Cc1cc(/C=C2\SC(=S)NC2=O)cc(C)c1O`, with 10.17%; and `CCC1(C(=O)OC)CCc2c(cc(OC)c3ccccc23)C1=O` (configuration not stated), with 22.96%.
For `CN1CN(C)C(c2ccncc2)=C1c1ccncc1`, the Inhibition is on record as -2.44%.
Then `CC(=O)CC(=O)Nc1ccc2ccccc2c1`, with 2.07%; and `O=C1COc2cccnc2N1`, with 5.88%; and `Oc1cc(-c2nn[nH]n2)nc(O)n1`, with 21.93%.
The value for `COCC(=O)OC1CCn2c1nc1c2C(=O)C(C)=C(NC(C)=O)C1=O` (configuration not stated) was 13.04%; that for `CN1CCc2ccccc2C1Cc1ccccc1NC(=O)c1sc2ccccc2c1Cl` (configuration not stated) was -10.73%; that for `NS(=O)(=O)c1ccc(NC2(C(=O)O)CCCC2)cc1` was -14.85%.
Then `CCOC(=O)C(C#N)C(=N)C1C(=O)OC2CCCCC21` (configuration not stated), with 21.59%.
Regarding `CCCCOc1ccc(Nc2cc(Cl)ccc2C(=O)O)cn1`, the Inhibition is given as 7.97%.
On to `N=C(N)Nc1ccc(NC(=N)N)cc1`, for which the Inhibition stood at 17.78%.
The value for `CCN(CC)CCNc1c(C)cc(CO)c(Cl)c1C.O=S(=O)(O)NC1CCCCC1` was 23.63%; that for `O=c1cc(-c2cccnc2)oc2c1ccc1ccccc12` was 19.87%; that for `Nc1ccc(Br)cc1Br` was 1.43%.
Then `CCOC(=O)CC1(C)NC(C(=O)O)C(C)(C)S1` (configuration not stated), with -9.73%.
The value for `CS(=O)(=O)Nc1nc2ccccc2[nH]1` was -0.15%.
In the case of `Nc1ncnc2c1ncn2C1C=C(CO)C(O)C1O` (configuration not stated), the Inhibition amounted to 21.12%.
Take `S=C(Nc1ccccc1)Nc1nccs1`: the Inhibition is -7.41%.
Then `CC1=CC2=C(C=O)C(=O)[C@](C)(O)[C@@H](O)C2=CO1`, with 3.32%; and `O=C(OCC1CCC=CO1)C1CCC=CO1` (configuration not stated), with 3.13%; and `Cc1cc(C)n(C(=N)NC(=O)c2ccccc2)n1`, with 1.69%.
As to `NC(=O)/C(=C\c1ccncc1)c1cccc2ccccc12`, the Inhibition is given as 18.99%.
The value for `O=C1c2cccc(Sc3ccccc3)c2C(=O)c2c(Sc3ccccc3)cccc21` was 26.77%; that for `CCCNC(=O)c1ccc(S(N)(=O)=O)cc1` was 10.97%; that for `Cc1ccc(Cl)cc1NC(=O)N(C)CCO` was -11.85%.
The value for `O=C(COc1cc(Cl)c(Cl)cc1Cl)Nc1ccc([N+](=O)[O-])cc1Cl` was 19.21%.
Regarding `CSC(=N)NS(=O)(=O)c1ccc(NC(C)=O)cc1`, the Inhibition is on record as 22.54%.
Consider `Clc1nc(Cl)nc(-c2cn(-c3ccccc3)c3ccccc23)n1`, for which the Inhibition came out at 16.52%.
Then `c1ccc(-c2nc(-c3ccccn3)nc(-c3ccccn3)n2)nc1`, with 11.58%; and `Cc1cccc(NC2=C(C#N)C(=O)NC3(CCCC3)S2)c1`, with -6.88%.

For orientation: Inhibition means the drop in the measured response relative to a control, in per cent.
